US20040042961A1, “Development of an in vivo functional assay for proteases” (priority 2002, published 2004)
Some of these results come from one statement about several compounds together. At least one compound was matched to its structure with a doubt left. Residues, ends and D or L forms follow the SMILES beside them. *: point of attachment. Cbz = O=C(OCc1ccccc1)*; CHN2 = [N-]=[N+]=C*; CH2F = FC*

Test system: HeLa-rtTA cells
Assay: Cell viability, MTT dye reduction assay
Type: cell-based
Conditions: 50 μM, 48 h
Experimental: FIG. 15 Adaptation of the intracellular assay to a high-throughput screening format. The assay was carried out in a 96-well microplate and fluorescence was measured using the Cytofluor. The expression of GFP fusion proteins was induced for 48 h in the presence of several inhibitors. Cell viability was determined using the MTT dye reduction assay. The average of triplicate values and the standard deviation for fluorescence and cell viability were expressed as a function of inhibitor concentration. Panel A. Relative fluorescence (fold/control) of cells expressing the wild-type preprocathepsin L-GFP fusion protein treated with various inhibitors. Panel B. The relative fluorescence of cells expressing the mutant preprocathepsin L-GFP (C25A) fusion protein in response to treatment with several inhibitors. Panel C. Percentage of viable cells expressing the wild type fusion protein after treatment with inhibitors. Panel D. The percentage of viable cells expressing the mutant fusion protein as described in Panel C.
Cell Viability Assay—The number of viable cells was evaluated by the MTT dye reduction assay with modification (24). In the presence of various concentrations of inhibitors, cells were grown in 96-well plates for 48 h. […] Absorbance of converted dye was measured at 550/690 nm on SpectraMAX 250 (Molecular Devices). […]

Row | SMILES | Cell viability [%]
1 | CC(C)C[C@H](NC(=O)OCc1ccccc1)C(=O)N[C@@H](CC(C)C)C(=O)N[C@@H](Cc1ccc(O)cc1)C(=O)CF [Cbz-LeuLeuTyr-CH2F] (Cbz-Leu-Leu-Tyr-CH2F) | > 60
2 | CC(C)C[C@H](NC(=O)OCc1ccccc1)C(=O)N[C@@H](CC(C)C)C(=O)N[C@@H](Cc1ccc(O)cc1)C(=O)C=[N+]=[N-] [Cbz-LeuLeuTyr-CHN2] (Cbz-Leu-Leu-Tyr-CHN2) | > 60
